According to PubChem BioAssay AID1508600 (Functional Genomics Laboratory (NCATS/FGL), 2020):
Hit rate of the full screen: of about 53,000 sequences, about 3,700 (7%) were called active.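 Rule for the calls: active = gene knockdowns whose robust z-score for IL-1 alpha signal is at least 2 or at most -2, so actives lie on both sides; inactive = the rest.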 Some of the results follow.

test: Components of the Cytosolic LPS Sensing Pathway: Gene Identification via Genome-wide siRNA Screen; conditions: RAW264.7 macrophages, IL-1a HTRF, actives lie on both sides, screened at 100 nM (by protocol), cells primed 5 h with Pam3CSK4 first;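 note: robust z of the log signal after scaling to non-targeting control siRNA wells of the plate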
Outline: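 Using IL-1a HTRF as read-out, the screen measured release from RAW264.7 cells after 48h siRNA knockdown (100 nM), 5 h Pam3CSK4 priming and 24 h cytosolic LipidA. Values were expressed relative to negative-control wells as robust z-scores.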

z-score, inactive:
CCCAAUCUCCUAAGAUCUGTT against Snca 0.784
GGGUGUAAAGAAACCUUAATT against Avpr2 0.453
CCGCUACCAGAUAAACUCGTT against BC053393 0.984
GGAGAAAUGGAUCACAUUGTT against H2ax 1.4
GGAGACAGAUGAAUGAACCTT against Tifab 0.0548
GGCAAUCAGCAUACCAACUTT against Thbs2 -1.87
GGACCUAAUAAAUUAAGCCTT against Pcf11 1
GGGCUUCAGUAGUCUUCAATT against Sprr2j-ps -0.475
GCAGAUCAAACAGCACUCGTT against Fhad1 -0.386
GGAAAAAGGAGGGUUUAGCTT against Tm4sf5 0.418
GGUAUCAGGAUAAUAUAGATT against Slc25a48 0.494
GCUCAAGACAUACUUUGAATT against Ddx56 -0.635
GGUGGAAUUUUUGAAGUUUTT against Tbl1xr1 1.19
GGCAGACUCGACAGUUCAATT against Pde6h 0.0959
GGCCAGACUUUCUGACUAUTT against Golga1 0.0556
GCGGAAACUUGUUAACGAATT against 1600014C10Rik 0.422
GGCCUUUUCCAUAAACUUUTT against Ddx60 0.873
GCUUCUUAGAGUCUUACCUTT against Rnf38 -1.23
CCCUCACAACUUGAAGGACTT against Ccnk -0.882
GGGACAUGAGCCAUUCAUCTT against Lcor 0.749
GCCUAGAAAGUCUGAAUAATT against Ifng 0.203
GAUUGCUACUCUGGCUUUATT against Tmem47 -0.284
GAUCAAAGAGGAGGAGCCCTT against Insm2 -0.202
GGAAAACCCAGGUCAGAAUTT against Serpina9 -1.07
GGUUAAAGGCAACCCUGAATT against Cys1 1.79
CGCAACCUGAAAAUGGCAUTT against Clba1 0.34
GCAUGCAUAAGCUUUUACCTT against 1700129C05Rik -1.64
CCUUAGCUGUCCUUGUGGUTT against Defb28 -1.36
GCAGCUAUCUCUCAUGGACTT against Olfr693 1.15
GGGUCACCGAUGGAAAUCUTT against Lta4h -1.58
GGUGGUGUGCAAAAAGUACTT against Clic1 -0.0209
GGACUUGAAACUUCUGGAUTT against Nudt16 0.453
CCCACCAAUGUCAGCGUGUTT against Igha 0.207
CCGUGUGAGAUAUGAAGAATT against Ermard -1.55
GGCUGUGAAGCAAAAGCAGTT against Nhp2 0.276
GGUGUAUACUGUGAAAUCATT against Notch1 -0.319
GGUGUGUGCUAGGACUGAGTT against Cfap61 1.35
CCGGACAAUAUGCUUAUUUTT against Mastl -0.52
GGCAUAAAAUCCAUCUAAUTT against Htr2a -0.219
CCACAUCAAGUUCACCCAGTT against Dctn1 -0.337
CGCAAAAUUCCGAUGGUGCTT against Pla2g12b -0.97
GCGGCGAGUGUAUAGAUUGTT against Zdhhc1 0.211
GCCGGAACAUCCAGAAUAGTT against Cpeb2 -0.644
GGAACUAGAGUCUCAAGUATT against Obi1 0.718
CCAGUUAAAAAGGUUCCAATT against Ccdc169 1.46
GGACAUUAUUUCUAUAUGGTT against Eif4e2 -1.2
GGCCCUAAUUUCAGUAAUATT against Pigv 0.568
GGAAACCUACCAAGAAACGTT against Fam234a -0.293
GGGCUGGAAAGAACUUUACTT against Fgf8 -0.354
GGAAGGUGGCCUGAAGCUATT against Mlh1 -1.62
GGGCUCUGUUGUAAUCAUGTT against Olfr366 -0.173
GCAUGGCCCAUGAAGACUUTT against Pir -1.19
GGGAAAAAGAGAGUCUAUUTT against Tns2 1.14
GGCCAUCUUUGACAGUGCUTT against Dnah1 1.11
GGAAACCUGAUGAUCUUUUTT against Olfr421-ps1 -1.27
GGAAUUAAAUCCUAGCUGATT against Tmem167 1.64
CCGACGGAUAGCUUGGAUGTT against Fgb -0.214
GGUCAGAGAUUAUUGAAUUTT against Ermap 0.321
CCCGGAUUAUUAAUGAGUCTT against Trim50 1.08
GGAUGAUCUACACAUUGUGTT against Mrpl4 0.519

A stretch from further up:
z-score, inactive:
CCGUGUGAGAUAUGAAGAATT against Ermard -1.55
GGCUGUGAAGCAAAAGCAGTT against Nhp2 0.276
GGUGUAUACUGUGAAAUCATT against Notch1 -0.319
GGUGUGUGCUAGGACUGAGTT against Cfap61 1.35
CCGGACAAUAUGCUUAUUUTT against Mastl -0.52
GGCAUAAAAUCCAUCUAAUTT against Htr2a -0.219
CCACAUCAAGUUCACCCAGTT against Dctn1 -0.337
CGCAAAAUUCCGAUGGUGCTT against Pla2g12b -0.97
GCGGCGAGUGUAUAGAUUGTT against Zdhhc1 0.211
GCCGGAACAUCCAGAAUAGTT against Cpeb2 -0.644
GGAACUAGAGUCUCAAGUATT against Obi1 0.718
CCAGUUAAAAAGGUUCCAATT against Ccdc169 1.46
GGACAUUAUUUCUAUAUGGTT against Eif4e2 -1.2
GGCCCUAAUUUCAGUAAUATT against Pigv 0.568
GGAAACCUACCAAGAAACGTT against Fam234a -0.293
GGGCUGGAAAGAACUUUACTT against Fgf8 -0.354
GGAAGGUGGCCUGAAGCUATT against Mlh1 -1.62
GGGCUCUGUUGUAAUCAUGTT against Olfr366 -0.173
GCAUGGCCCAUGAAGACUUTT against Pir -1.19
GGGAAAAAGAGAGUCUAUUTT against Tns2 1.14
GGCCAUCUUUGACAGUGCUTT against Dnah1 1.11

Following part:

z-score, active:
GGUCAUACAUGUGAAGACATT against Tsr2 2.01
GCGGCAUCUACUUAAUAUGTT against Acer2 2.12
GGCUUGUACUACCAUGACATT against Rasgef1b -2.76
CCAUAUCUAUGAUAUGGUUTT against Piezo2 -2.18
GAGUGAGCAAAUACCAGUUTT against 1700001J03Rik 2.52
AGUCUCCAAAUGCAUUUAATT against Serpinb9g -2.5
GGUGGCCAUUCUUCUGUUCTT against Dynll1 2.19
GCUCUUGGGAUGGACGAUATT against Hmgcs1 4.73
